Publication PMC9292107
Results are given in words; binding and its absence hold for the method and conditions named. Binding seen in cells or lysates may run through a third protein. Some binding calls cover weakened binding; strength is not graded here.

By UniProt entry, the sequences of proteins in these tests, tags left out.
UniProt Q9ET78: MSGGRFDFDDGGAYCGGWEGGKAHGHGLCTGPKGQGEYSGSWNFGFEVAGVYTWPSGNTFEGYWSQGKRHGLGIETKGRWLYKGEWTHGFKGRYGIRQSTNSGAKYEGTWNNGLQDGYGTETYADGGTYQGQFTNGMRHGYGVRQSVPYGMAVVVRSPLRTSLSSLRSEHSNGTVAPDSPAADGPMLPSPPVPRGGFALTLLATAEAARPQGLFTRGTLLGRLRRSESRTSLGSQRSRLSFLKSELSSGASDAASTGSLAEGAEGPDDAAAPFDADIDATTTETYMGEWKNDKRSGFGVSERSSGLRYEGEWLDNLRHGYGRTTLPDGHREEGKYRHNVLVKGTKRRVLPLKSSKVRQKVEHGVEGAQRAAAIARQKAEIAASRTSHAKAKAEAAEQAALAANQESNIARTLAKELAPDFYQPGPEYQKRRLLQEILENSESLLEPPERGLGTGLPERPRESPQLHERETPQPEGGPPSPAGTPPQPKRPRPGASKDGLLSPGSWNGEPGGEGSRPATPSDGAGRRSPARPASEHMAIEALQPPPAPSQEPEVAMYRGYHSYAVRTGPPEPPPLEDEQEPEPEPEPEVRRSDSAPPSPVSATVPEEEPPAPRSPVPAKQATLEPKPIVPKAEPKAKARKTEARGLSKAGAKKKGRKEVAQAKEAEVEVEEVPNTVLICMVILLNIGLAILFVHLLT
UniProt P37804: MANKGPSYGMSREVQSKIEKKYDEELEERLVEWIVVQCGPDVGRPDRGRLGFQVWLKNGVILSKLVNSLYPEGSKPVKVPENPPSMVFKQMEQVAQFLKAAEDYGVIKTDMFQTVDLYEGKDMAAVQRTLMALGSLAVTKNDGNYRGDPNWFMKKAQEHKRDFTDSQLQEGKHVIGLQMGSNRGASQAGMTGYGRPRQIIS

B1: caveolin-3 (Cav3) (protein, UniProt P51637 1-151)
chain: MMTEEHTDLEARIIKDIHCKEIDLVNRDPKNINEDIVKVDFEDVIAEPEGTYSFDGVWKVSFTTFTVSKYWCYRLLSTLLGVPLALLWGFLFACISFCHIWAVVPCIKSYLIEIQCISHIYSLCIRTFCNPLFAALGQVCSNIKVVLRREG

Legend:
Assay in all cases: co-IP; endogenous proteins in extracts of mouse cardiomyocytes / heart (WT; for actin-Cav3 also SM22α KO); IgG as negative control; Western blot
[1] = target: JPH2 (mouse (endogenous in cardiomyocytes)) (UniProt Q9ET78)
[2] = target: caveolin-3 (Cav3) (mouse (endogenous in cardiomyocytes)) (UniProt P51637)
[3] = target: Smooth muscle 22-alpha (SM22α) (mouse (endogenous in cardiomyocytes)) (UniProt P37804)

Molecule | binding [1] | binding [2] | binding [3]
Smooth muscle 22-alpha (SM22α) (from UniProt P37804 1-201) | binds | binds | –
B1 | – | – | binds
